We go through one substance from doi:10.1101/764829.

The chains behind the UniProt entries cited, without tags or fusion partners. Where a name states a change or a piece, a line headed by the entry shows the natural chain unless it says otherwise.
UniProt Q386H7: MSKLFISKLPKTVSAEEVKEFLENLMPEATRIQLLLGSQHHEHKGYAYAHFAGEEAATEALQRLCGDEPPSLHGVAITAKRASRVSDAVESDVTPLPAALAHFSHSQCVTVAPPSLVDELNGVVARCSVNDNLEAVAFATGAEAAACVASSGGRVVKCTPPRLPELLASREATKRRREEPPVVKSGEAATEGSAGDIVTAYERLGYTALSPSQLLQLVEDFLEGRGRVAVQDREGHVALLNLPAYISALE
UniProt Q57ZJ6: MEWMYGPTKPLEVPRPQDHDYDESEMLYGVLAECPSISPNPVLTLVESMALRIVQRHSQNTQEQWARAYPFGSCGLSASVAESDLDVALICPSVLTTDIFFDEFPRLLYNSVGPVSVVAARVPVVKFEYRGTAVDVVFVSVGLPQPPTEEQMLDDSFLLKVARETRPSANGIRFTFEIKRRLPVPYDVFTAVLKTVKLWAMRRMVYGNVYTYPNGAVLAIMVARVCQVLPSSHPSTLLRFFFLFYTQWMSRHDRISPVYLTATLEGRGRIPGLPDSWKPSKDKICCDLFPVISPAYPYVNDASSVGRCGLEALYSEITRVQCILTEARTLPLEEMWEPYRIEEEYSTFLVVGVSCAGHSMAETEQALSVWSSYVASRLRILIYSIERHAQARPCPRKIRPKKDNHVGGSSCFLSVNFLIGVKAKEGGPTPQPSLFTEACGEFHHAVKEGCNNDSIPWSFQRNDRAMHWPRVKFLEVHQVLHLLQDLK

No constants are given. Whether binding was seen depends on the method and setting. Binding seen in cells or lysates may run through a third protein. Here binding means that the protein was enriched with, or labelled near, the bait; the list need not be complete.

The assay addresses KKIP12 (Trypanosoma brucei) (UniProt Q386H7). Kind of assay: affinity purification with mass spectrometry.

As for KKIP8 (from UniProt Q57ZJ6), the binding result is given as “binds”.
